We go through three molecules from patent US20150218246A1.

Protein sequences, listed by entry. Tags and fused reporters are not part of them. Residues count along the entry.
UniProt O00206, residues 24-839: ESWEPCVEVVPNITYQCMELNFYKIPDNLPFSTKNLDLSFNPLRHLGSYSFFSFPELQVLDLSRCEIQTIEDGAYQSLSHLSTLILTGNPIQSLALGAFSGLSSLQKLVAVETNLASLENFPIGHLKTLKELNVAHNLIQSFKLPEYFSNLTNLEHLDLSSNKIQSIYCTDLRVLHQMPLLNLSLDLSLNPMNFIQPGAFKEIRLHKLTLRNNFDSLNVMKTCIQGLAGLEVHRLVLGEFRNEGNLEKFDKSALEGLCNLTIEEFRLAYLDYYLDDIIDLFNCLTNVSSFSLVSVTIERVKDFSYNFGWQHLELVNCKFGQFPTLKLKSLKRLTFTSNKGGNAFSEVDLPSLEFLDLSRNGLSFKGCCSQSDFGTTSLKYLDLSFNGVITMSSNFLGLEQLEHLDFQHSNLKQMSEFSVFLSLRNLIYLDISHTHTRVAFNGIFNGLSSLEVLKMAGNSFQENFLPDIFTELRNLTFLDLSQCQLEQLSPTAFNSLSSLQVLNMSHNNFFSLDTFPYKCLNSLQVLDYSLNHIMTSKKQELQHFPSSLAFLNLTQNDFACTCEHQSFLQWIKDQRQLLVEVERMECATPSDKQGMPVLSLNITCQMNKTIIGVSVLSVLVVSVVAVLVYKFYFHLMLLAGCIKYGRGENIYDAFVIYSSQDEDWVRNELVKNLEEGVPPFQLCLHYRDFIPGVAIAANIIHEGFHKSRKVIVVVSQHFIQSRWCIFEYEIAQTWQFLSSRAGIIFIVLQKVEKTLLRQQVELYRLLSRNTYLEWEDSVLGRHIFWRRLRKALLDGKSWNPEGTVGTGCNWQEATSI

Assay [1] has as its target T1, Flag-tagged human wild-type MD-2 (human) (UniProt Q9Y6Y9).
T1 sequence (looked up): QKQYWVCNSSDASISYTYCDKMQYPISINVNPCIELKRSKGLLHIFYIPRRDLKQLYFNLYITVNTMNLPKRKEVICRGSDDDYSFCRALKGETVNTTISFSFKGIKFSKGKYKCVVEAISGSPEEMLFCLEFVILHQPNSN
The assay can be described thus: co-immunoprecipitation from HEK293 lysates: anti-Flag pull-down of Flag-MD-2, anti-Myc immunoblot.

Assay [2] addresses TLR4-mCitrine stably expressed on HEK293T cells (UniProt O00206). The assay can be described thus: flow cytometry and confocal imaging: anti-myc surface staining of HEK293T TLR4-mCitrine cells transfected with the myc-tagged protein.
The target in assay [3] is Flag-tagged TLR4 (UniProt O00206). Briefly: co-immunoprecipitation from HEK293 lysates: anti-Flag pull-down, anti-Myc immunoblot (FIG. 4B).
The target of assay [4] is T1, Flag-tagged human wild-type MD-2 (human). The assay can be described thus: co-immunoprecipitation from HEK293 lysates: anti-Flag pull-down of Flag-MD-2, anti-Myc immunoblot (FIG. 6A).
Assay [5] has as its target Flag-tagged TLR4 (UniProt O00206). Briefly: co-immunoprecipitation from HEK293 lysates: anti-Flag pull-down, anti-Myc immunoblot.
The target of assay [6] is T2, Flag-tagged human wild-type MD-2 (human), Q9Y6Y9.
T2 chain: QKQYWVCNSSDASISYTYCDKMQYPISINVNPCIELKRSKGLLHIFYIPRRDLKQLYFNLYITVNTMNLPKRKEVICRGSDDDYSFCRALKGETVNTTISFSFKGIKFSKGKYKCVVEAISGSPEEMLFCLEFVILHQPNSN
Briefly: co-immunoprecipitation from HEK293 lysates: anti-Flag pull-down of Flag-MD-2, anti-Myc immunoblot. As to conditions: remark: other sources report otherwise.

These are yes or no findings as the source states them, for the method shown. For some assays here: In cells and extracts the contact can be indirect. Some entries that bind do so weakly or less than the wild type. Sequences can lack the tags named with a protein.

B1: Myc-tagged MD-2s (alternatively spliced short isoform of human MD-2) (protein, not shown: small tags and cut ends)
chain: QKQYWVCNSSDASISYTYCGRDLKQLYFNLYITVNTMNLPKRKEVICRGSDDDYSFCRALKGETVNTTISFSFKGIKFSKGKYKCVVEAISGSPEEMLFCLEFVILHQPNSN
modifications: N-linked glycosylated (slower migrating forms removed by PNGase F)
In the case of B1, the binding entry (in assay [1]; in assay [2]; with Flag-tagged TLR4 [3]; in assay [4]; with Flag-tagged TLR4 [5]) was “binds” in each case.

B2: Myc-tagged wild-type human MD-2 (protein, UniProt Q9Y6Y9 19-160, looked up, not shown: small tags and cut ends)
chain: QKQYWVCNSSDASISYTYCDKMQYPISINVNPCIELKRSKGLLHIFYIPRRDLKQLYFNLYITVNTMNLPKRKEVICRGSDDDYSFCRALKGETVNTTISFSFKGIKFSKGKYKCVVEAISGSPEEMLFCLEFVILHQPNSN
As for B2, the binding result (in assay [2]; with Flag-tagged TLR4 [5]) was “binds” in each case.

B3: Myc-tagged wild-type human MD-2, Q9Y6Y9 19-160 (protein, UniProt Q9Y6Y9 19-160, looked up, not shown: small tags and cut ends)
chain: QKQYWVCNSSDASISYTYCDKMQYPISINVNPCIELKRSKGLLHIFYIPRRDLKQLYFNLYITVNTMNLPKRKEVICRGSDDDYSFCRALKGETVNTTISFSFKGIKFSKGKYKCVVEAISGSPEEMLFCLEFVILHQPNSN
Consider B3, for which the binding result in assay [6] is listed as “binds”.
